PubChem BioAssay AID504834 (National Center for Advancing Translational Sciences (NCATS), 2011)
Out of some 320,000 compounds screened, about 22,000 (6.9%) were called active. Inconclusive results, whose numbers are uncertain, are shown with a selection of clear calls. The call rests on the fitted dose curve; in most records, active means well fitted inhibition curve with a large enough effect; inconclusive means small, poorly fitted or top-dose-only effect, or another doubt; inactive means no such curve, though single readings can be large or run the other way. A potency beside an inconclusive call is a rough fit, not a confirmed value.
On the % scale 0 is the no-effect control and ±100 the full control effect; potency means the concentration at half of the fitted maximal effect.

Assay: Primary qHTS for delayed death inhibitors of the malarial parasite plastid, 96 hour incubation
Conditions: P. falciparum luciferase reporter growth; series mostly up to 28.7 µM; activity change, negative = inhibition: at the top concentration
Procedure, shortened: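 Infected RBCs, 2% Hct / 0.05% parasitemia final; luciferase-reporter P. falciparum; cpd 96 h, 37 C, 5% CO2; luciferase detection reagent; luminescence.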
In the case of `O=C(NCCOC(=O)c1ccc(C(=O)OCCNC(=O)c2ccccc2)o1)c1ccccc1`, the Potency is reported as inconclusive: 0.0738 µM [inhibitor, partial curve, poor fit]. In the case of `CC(NC(=S)NNS(=O)(=O)c1cccc([N+](=O)[O-])c1)c1ccccc1` (stereo unspecified), the “activity change, negative = inhibition” value is reported as inactive: 14.4%. With `N#Cc1ccc(COC(=O)c2ccc(N3CCCC3)c([N+](=O)[O-])c2)cc1` the Potency was inconclusive: 18.5 µM [inhibitor, single point]. With `Cc1cccn2c(=O)c3c(nc12)N1CCC(Cc2ccccc2)CC1C1(C3)C(=O)N(C)C(=O)N(C)C1=O` (stereo unspecified) the Potency was inconclusive: 16.5 µM [inhibitor, single point]. With `Cc1ccc(-n2c(SCC(=O)N/N=C/c3c(C)nn(-c4ccccc4)c3C)nc3ccccc3c2=O)cc1` the Potency was inconclusive: 18.5 µM [inhibitor, single point]. In the case of `O=C(NCC1CCCCC1)c1ccc(F)cc1Cl`, the Potency is reported as inconclusive: 18.5 µM [inhibitor, single point]. For `CC(=O)N1CCOc2cc(S(=O)(=O)Nc3cccc(C(F)(F)F)c3)c(Cl)cc21`, the Potency was inconclusive: 3.7 µM [inhibitor, partial curve, poor fit]. For `O=[N+]([O-])c1ccccc1-c1ccc(/C=N/n2cnnc2)o1`, the “activity change, negative = inhibition” value was inactive: 50.3%. In the case of `O=C(Nc1ccccc1N1CCOCC1)C1(c2ccc(Cl)cc2)CCC1`, the Potency is reported as inconclusive: 10.4 µM [inhibitor, single point]. With `COc1ccc(OC)c(NC(=O)CCN2CC(C)CC(C)C2)c1` (stereo unspecified) the “activity change, negative = inhibition” value was inactive: -17.6%. In the case of `O=C(/C=C/c1c(Cl)cccc1Cl)NCc1ccco1`, the “activity change, negative = inhibition” value is reported as inactive: 27.3%. For `CC1(NC(=O)CCc2nc3sc4c(c3c(=O)[nH]2)CCCC4)CCS(=O)(=O)C1` (stereo unspecified), the Potency was inconclusive: 18.5 µM [inhibitor, single point]. In the case of `COc1ccc(Cn2c(O)c(/C=N/NC(=O)c3ccncc3)c(=O)[nH]c2=O)cc1`, the “activity change, negative = inhibition” value is reported as inactive: 18.8%. In the case of `COc1cc(C=O)ccc1Oc1cnccn1`, the “activity change, negative = inhibition” value is reported as inactive: 3.02%. In the case of `COc1ccc(C=O)cc1O`, the “activity change, negative = inhibition” value is reported as inactive: -7.74%. In the case of `CN1CCN(CC(=O)Nc2ccc(Cl)cc2Cl)CC1`, the Potency is reported as active: 9.28 µM. For `O=C(COC(=O)C1=Cc2ccccc2OC1)NCc1ccco1`, the Potency was inconclusive: 10.4 µM [inhibitor, partial curve, poor fit]. In the case of `Cc1nnc(SCC(=O)N/N=C/c2cn(-c3ccccc3)nc2-c2ccc(F)cc2)n1-c1ccccc1`, the “activity change, negative = inhibition” value is reported as inactive: 0%. For `CC(=O)N1CC(C)Sc2ccc(S(=O)(=O)NCCc3cccc(C)c3)cc21` (stereo unspecified), the “activity change, negative = inhibition” value was inactive: 1.49%. With `CC(=O)Nc1ccc(S(=O)(=O)N(Cc2ccccc2)C(C)C)cc1` the Potency was inconclusive: 0.0465 µM [inhibitor, full curve]. For `CN1CCC(OC(=O)COc2ccc(Cl)cc2Cl)CC1`, the Potency was inconclusive: 10.4 µM [inhibitor, single point].
